{"source": "PubChem BioAssay AID463116", "about": "(University of Pittsburgh Molecular Library Screening Center, 2010)", "note": "This is one part of the list. Shown are side measurements of this screen, not its main read-out; they come without a call. The list favours compounds with an active or inconclusive main result."}
{"experiment": "blockers of dexamethasone-driven GR-EGFP nuclear import – imaging, high-content imaging, GR-EGFP cells, confirmation (AID 463116)", "conditions": "3617.4 GR-EGFP nuclear translocation imaging, dexamethasone-induced; measured here: cell count per field; at 20 µM"}
{"smiles": "COc1ccccc1NS(=O)(=O)c1cc([N+](=O)[O-])ccc1N/N=C/c1sc(N2CCOCC2)nc1-c1ccccc1", "z-score": -1.13}
{"smiles": "CCOc1ccc(N2C(=O)CC(Sc3n[nH]c(-c4ccccc4)n3)C2=O)cc1", "note": "(stereo not drawn)", "z-score": 0.119}
{"smiles": "Cc1cc(NC(=O)c2coc(=O)c(Br)c2)ccc1C(C)C", "z-score": -0.291}
{"smiles": "CCOC(=O)C1=C(O)c2ccccc2C(=O)/C1=C\\c1ccc(CC)cc1", "z-score": -4.55}
{"smiles": "COC(=O)CS(=O)(=O)c1nnc([C@H](Cc2ccccc2)NC(=O)OC(C)(C)C)o1", "z-score": 0.314}
{"smiles": "CCN1CCN(c2ccc(NC(=O)c3ccc([N+](=O)[O-])o3)cc2Cl)CC1", "z-score": 0.309}
{"smiles": "Cn1c(=O)oc2cc(S(=O)(=O)Nc3ccc4c(c3)OCCO4)ccc21", "z-score": 0.262}
{"smiles": "Cc1ccc(Sc2ccc(NC(=O)CCl)cc2)cc1C", "z-score": -0.0367}
{"smiles": "COc1ccc(/C=C/C(=O)c2cc(F)ccc2OC(=O)c2ccccc2OC)cc1OC", "z-score": -0.424}
{"smiles": "CCN(CC)c1ccc(N=Cc2ccc([N+](=O)[O-])o2)cc1", "z-score": 0.316}
{"smiles": "O=C(CN1CCCc2ccccc21)NC(=O)NC1CCCCC1", "z-score": -0.197}
{"smiles": "O=c1c(Cl)c(Cl)cnn1Cc1ccc(F)cc1", "z-score": -0.572}
{"smiles": "COC(=O)C(=C/C(C)=C/c1cccs1)C(=O)OC", "z-score": 0.436}
{"smiles": "Oc1c(Cl)cc(Cl)c2c1NCCC2", "z-score": 0.144}
{"smiles": "C/C(CCc1oc2c(Br)cc(Br)cc2c1-c1ccc(C)o1)=N\\O", "z-score": 0.0863}
{"smiles": "CC1CCN(CC(CS(=O)(=O)c2ccc([N+](=O)[O-])cc2)N2CCC(C)CC2)CC1", "note": "(stereo not drawn)", "z-score": -0.618}
{"smiles": "ClC1=C(Cl)C(Cl)=C(Cl)C1=C/C=C/c1ccccc1", "z-score": -0.17}
{"smiles": "O=c1oc(-c2ccco2)nc2ccccc12", "z-score": 0.76}
{"smiles": "N#CCCN(C(=O)CCl)c1cccc(Cl)c1", "z-score": 0.818}
{"smiles": "Cc1[nH]c2ccccc2c1/C=N/Nc1ccc([N+](=O)[O-])cc1", "z-score": 0.212}
{"smiles": "Cc1cccc(NC(=O)CCC(=O)OCC(=O)c2ccc(Oc3ccc([N+](=O)[O-])cc3)cc2)c1", "z-score": 0.246}
{"smiles": "O=C(CC1Sc2ncnn2C1=O)Nc1ccc(Cl)cc1", "note": "(stereo not drawn)", "z-score": 0.341}
{"smiles": "Cn1ccnc1Sc1cc(NCCCO)c([N+](=O)[O-])c2nonc12", "z-score": -0.104}
{"smiles": "CS(=O)(=O)c1nc(-c2ccc(F)cc2)cc(C(F)(F)F)n1", "z-score": -0.981}
{"smiles": "O=C(Oc1ccccc1)c1cccc(COC(=O)c2cnccn2)c1", "z-score": 0.387}
{"smiles": "COc1ccc(NC(=O)/C(Cl)=C(/Cl)S(=O)(=O)Cc2ccccc2)cn1", "z-score": -1.56}
{"smiles": "COc1ccc(C2CC(c3cccs3)=NN2c2ccc(C=O)cc2)cc1", "note": "(stereo not drawn)", "z-score": 0.0282}
{"smiles": "CC(=O)Nc1c([N+](=O)[O-])cc(C)c(Cl)c1[N+](=O)[O-]", "z-score": 0.177}
{"smiles": "CCCCc1ccc(/C=C2\\C(=O)c3ccccc3C(O)=C2C(=O)OCC)cc1", "z-score": -0.959}
{"smiles": "Cc1cc(C2=CC(C)(c3cc(C)oc3C)Nc3nc(C(F)(F)F)nn32)c(C)o1", "note": "(stereo not drawn)", "z-score": 0.429}
{"smiles": "O=C(NCCC1=CCCCC1)c1coc(=O)c(Br)c1", "z-score": 0.552}
{"smiles": "Cc1cc(C)n(C(C[N+](=O)[O-])c2ccc(Cl)cc2)n1", "note": "(stereo not drawn)", "z-score": 0.342}
{"smiles": "CC1=NN(c2cccc(C(=O)O)c2)C(=O)/C1=C\\C=C/c1ccccc1", "z-score": 0.584}
{"smiles": "O=S1(=O)CCC(NC(=S)SCCOc2ccccc2)C1", "note": "(stereo not drawn)", "z-score": -0.216}
{"smiles": "Cc1ccc(O)c(NC(=O)c2cc([N+](=O)[O-])ccc2Cl)c1", "z-score": 0.644}
{"smiles": "Cn1c(=O)c(Nc2ccc(Cl)cc2)c2c3c(cccc31)C(=O)c1ccccc1-2", "z-score": 0.793}
{"smiles": "O=C(Cc1ccccc1)Nc1cccc(N2C(=O)C=CC2=O)c1", "z-score": -1.81}
{"smiles": "COC(=O)c1cc(=O)n(CCc2ccccc2F)c(=Nc2ccc(F)c(Cl)c2)s1", "z-score": -0.281}
{"smiles": "O=c1oc2c3c4c(cc2c(C(F)(F)F)c1CCN1CCOCC1)CCCN4CCC3", "z-score": 0.0811}
{"smiles": "CCN1/C(=C/C=C/c2oc3ccc4ccccc4c3[n+]2CC)Oc2ccc3ccccc3c21", "z-score": 0.393}
{"smiles": "Cc1ccc(NC(=O)CN(C)C(=O)Cn2ncc(Cl)c(Cl)c2=O)cc1", "z-score": 0.281}
{"smiles": "Cc1ccc(C2C3CSCC=C3C(C#N)=C(N)C2(C#N)C#N)cc1", "note": "(stereo not drawn)", "z-score": -0.64}
{"smiles": "O=C(NC(=S)Nc1nc2c(s1)CSc1ccccc1-2)c1ccccc1", "z-score": 0.35}
{"smiles": "C=C(CC)C(=O)c1ccc(OCC(=O)O)c(Cl)c1Cl", "z-score": 0.838}
{"smiles": "CS(=O)(=O)N1N=C(c2ccccc2)CC1c1ccc2c(c1)OCO2", "note": "(stereo not drawn)", "z-score": 0.758}
{"smiles": "CCOC(=O)C1(CCCc2ccccc2)CCN(C(=O)C2=C(C)OCCO2)CC1", "z-score": -0.0873}
{"smiles": "COc1cc(C(=O)Sc2ccc(C)cc2)cc(OC)c1OC", "z-score": 0.0657}
{"smiles": "Cc1ccnc(SCc2cc(=O)c(OC(=O)c3cc([N+](=O)[O-])ccc3Cl)co2)n1", "z-score": 0.238}
{"smiles": "CCn1c(Cl)c(C=O)s/c1=N\\S(=O)(=O)c1ccccc1", "z-score": 0.122}
{"smiles": "CCCCN1C(=O)/C(=C/C=C2\\Oc3ccccc3N2CC)SC1=S", "z-score": 0.53}
{"smiles": "CC(C)(C)NC(=S)N/N=C\\c1ccc(-c2ccc([N+](=O)[O-])cc2)o1", "z-score": 0.227}
{"smiles": "CC1(C)CC(=O)/C(=C\\c2cccc([N+](=O)[O-])c2)C(C)(C)N1", "z-score": 0.583}
{"smiles": "Cc1cccc(Cn2ncc(Cl)c(Cl)c2=O)c1", "z-score": -0.117}
{"smiles": "COc1cccc(-n2nc(C#N)c(Cl)cc2=O)c1", "z-score": 0.911}
{"smiles": "COc1cc(/C=C(/C(=O)c2cccs2)c2nc3ccccc3[nH]2)cc(OC)c1O", "z-score": 0.676}
{"smiles": "CCOC(=O)C1=C(C)OC(N)=C(C#N)C1c1cncc(-c2ccc(F)cc2)c1", "note": "(stereo not drawn)", "z-score": 0.144}
{"smiles": "O=C(/C=C/c1cccc([N+](=O)[O-])c1)NC(=S)Nc1ccccc1C(=O)O", "z-score": 0.0618}
{"smiles": "CCOC(=O)C1C(=O)C=C(/C=C/c2ccc(N(C)C)cc2)CC1c1ccccc1", "note": "(stereo not drawn)", "z-score": -0.158}
{"smiles": "CC(=O)n1cc(N(C(=O)CCl)c2ccc(C)cc2)c2ccccc21", "z-score": -0.712}
{"smiles": "O=C(/C=C/c1ccc(Cl)cc1)c1cccnc1", "z-score": 0.28}
{"smiles": "CCCc1cc(-n2ccnc2)n2c(nc3ccccc32)c1C#N", "z-score": 0.129}
{"smiles": "O=C(/C=C/C=C/c1ccccc1)c1ccco1", "z-score": -0.146}
{"smiles": "CCOC(=O)/C(=C\\c1cccc(O)c1)c1nc2sc(C)c(C)c2c(=O)[nH]1", "z-score": 0.879}
{"smiles": "COC(CN(C(=O)CCl)C(C(=O)NC1CCCCC1)c1ccc(Cl)cc1)OC", "note": "(stereo not drawn)", "z-score": 0.272}
{"smiles": "COc1ccccc1N1C(=O)CC(Sc2n[nH]c(-c3cccc(C)c3)n2)C1=O", "note": "(stereo not drawn)", "z-score": 0.538}
{"smiles": "C=CCSC(=C(C#N)C#N)c1cc2c([nH]1)CCCC2", "z-score": -0.089}
{"smiles": "Nc1cccc2c1C(=O)N(C(=O)/C=C/c1ccc(F)cc1)C2=O", "z-score": 0.336}
{"smiles": "CC(=O)OCCNc1cc(SCc2ccco2)c2nonc2c1[N+](=O)[O-]", "z-score": 0.0784}
